Test results as given in PubChem BioAssay (EPA / NIEHS).
For part of these data: Shown are results outside the selection of hits, which stands elsewhere. Results filed as inconclusive are left out. The list shows a part of the results, in another mix than the full data. Activity calls are given as the source filed them. How the source made its calls, unless noted: active means hit-call score of the fitted dose curve at least 0.9, where 1 is the maximum; inactive means score below 0.9.

Protein sequences, listed by entry. Tags and fused reporters are not part of them. Lines headed by an entry give the natural chain unless they say otherwise; changes in a name come on top.
UniProt P08684, whole entry, looked up: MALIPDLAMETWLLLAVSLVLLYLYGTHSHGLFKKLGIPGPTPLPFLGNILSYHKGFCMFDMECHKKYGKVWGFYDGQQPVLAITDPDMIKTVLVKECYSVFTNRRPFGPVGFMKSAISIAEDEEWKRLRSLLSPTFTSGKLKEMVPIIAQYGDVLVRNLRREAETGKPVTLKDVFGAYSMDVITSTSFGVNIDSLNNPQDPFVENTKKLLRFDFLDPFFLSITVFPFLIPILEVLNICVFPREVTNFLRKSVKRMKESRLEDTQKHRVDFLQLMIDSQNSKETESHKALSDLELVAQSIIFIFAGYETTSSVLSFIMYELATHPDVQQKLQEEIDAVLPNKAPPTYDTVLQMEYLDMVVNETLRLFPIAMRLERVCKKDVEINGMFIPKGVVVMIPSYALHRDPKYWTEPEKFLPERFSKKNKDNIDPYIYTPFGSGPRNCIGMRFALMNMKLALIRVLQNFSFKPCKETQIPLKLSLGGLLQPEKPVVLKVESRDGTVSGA
UniProt P10275: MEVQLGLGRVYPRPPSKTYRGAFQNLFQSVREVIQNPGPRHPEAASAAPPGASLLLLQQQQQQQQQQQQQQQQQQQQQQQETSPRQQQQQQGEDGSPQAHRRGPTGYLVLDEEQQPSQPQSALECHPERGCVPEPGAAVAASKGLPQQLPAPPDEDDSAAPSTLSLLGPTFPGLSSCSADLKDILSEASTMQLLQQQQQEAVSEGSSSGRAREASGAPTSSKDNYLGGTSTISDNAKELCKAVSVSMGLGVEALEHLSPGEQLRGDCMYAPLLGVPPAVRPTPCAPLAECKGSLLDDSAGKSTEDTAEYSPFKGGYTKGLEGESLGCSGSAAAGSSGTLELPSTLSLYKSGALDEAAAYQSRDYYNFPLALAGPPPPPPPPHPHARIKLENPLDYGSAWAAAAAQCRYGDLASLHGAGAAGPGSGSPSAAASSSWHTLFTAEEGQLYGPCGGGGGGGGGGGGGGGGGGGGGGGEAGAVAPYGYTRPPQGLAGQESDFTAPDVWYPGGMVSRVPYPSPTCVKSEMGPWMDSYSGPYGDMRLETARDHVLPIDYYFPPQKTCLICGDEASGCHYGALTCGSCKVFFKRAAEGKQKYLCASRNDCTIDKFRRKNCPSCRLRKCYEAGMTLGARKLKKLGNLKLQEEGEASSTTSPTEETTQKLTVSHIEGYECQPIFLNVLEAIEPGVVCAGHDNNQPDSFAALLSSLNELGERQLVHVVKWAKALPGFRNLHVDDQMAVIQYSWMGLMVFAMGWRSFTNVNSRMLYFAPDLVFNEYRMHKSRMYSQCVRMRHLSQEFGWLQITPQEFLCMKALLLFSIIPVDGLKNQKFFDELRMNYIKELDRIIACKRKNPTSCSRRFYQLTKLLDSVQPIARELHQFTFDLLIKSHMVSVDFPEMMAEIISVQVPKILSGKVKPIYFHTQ

Experiments:
[1] = read-out: Interleukin-1 alpha (IL1a), IL1A (gene 3552); assay: BSK_KF3CT_IL1a: BioMAP Diversity Plus: KF3CT Assay for Interleukin-1 alpha (IL1a) Biomarker Activity (AID 2283070); conditions: actives raise or lower the signal; primary human keratinocytes with fibroblasts
In short: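 Readout is IL-1a level by ELISA, compared bidirectionally with DMSO as baseline. Cells: human keratinocytes co-cultured with foreskin fibroblasts, harvested 24 h post-dose.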

CD40, CD40 (gene 958) [2] = assay: BSK_LPS_CD40: BioMAP Diversity Plus: LPS Assay for CD40 Biomarker Activity (AID 2283076); conditions: actives raise or lower the signal; primary human HUVEC with PBMC
In short: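 CD40 signal, measured by ELISA, is fitted in both directions relative to DMSO vehicle. The system is an LPS-driven human vascular primary co-culture of endothelial cells and PBMC, sampled 24 h after compound addition.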

[3] = ATG_XTT_Cytotoxicity: Cytotoxicity Assessment in the Attagene TRANS-FACTORIAL HepG2 Assay (AID 2283584; active means hit-call score of the fitted dose curve at least 0.9, where 1 is the maximum)
In short: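 Transfect HepG2 with GAL4-UAS reporter units, dose compound, incubate 24 h, then measure viable cell number by XTT. Fit concentration response against DMSO baseline.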

[4] = system: turtle Estrogen Receptor (ERa), gene 101933533; assay: ATG_trERa_XSP2: Attagene TRANS-FACTORIAL Multi-Species (XSP2) HepG2 Assay for turtle Estrogen Receptor (ERa) (AID 2283812; active means hit-call score of the fitted dose curve at least 0.9, where 1 is the maximum;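 further: actives raise reporter signal above DMSO so AC50 reflects agonist activity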)
In short: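 Readout is reporter mRNA quantified by RT-PCR with capillary electrophoresis after 24 h compound exposure, increase relative to DMSO. Uses transiently transfected human HepG2 liver cells carrying a chimeric turtle ERa-Gal4 receptor driving GAL4-UAS reporters.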

[5] = system: frog Estrogen Receptor (ER2), gene 100174814; assay: ATG_frER2_XSP2: Attagene TRANS-FACTORIAL Multi-Species (XSP2) HepG2 Assay for frog Estrogen Receptor (ER2) (AID 2283828; active means hit-call score of the fitted dose curve at least 0.9, where 1 is the maximum)
In short: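 Induction of reporter mRNA, baseline set by DMSO, is the endpoint. The panel was run in transfected HepG2 cells over 24 h, with 3 nM 6-alpha-fluorotestosterone and 1.5 nM norgestrel present to stimulate androgen receptor.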

[6] = read-out: Vascular cell adhesion molecule 1 (VCAM1), VCAM1 (gene 7412); assay: BSK_LPS_VCAM1: BioMAP Diversity Plus: LPS Assay for Vascular cell adhesion molecule 1 (VCAM1) Biomarker Activity (AID 2283086); conditions: actives raise or lower the signal; primary human HUVEC with PBMC
In short: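 VCAM-1 quantified by ELISA in an LPS-activated co-culture of human endothelial cells and peripheral blood mononuclear cells, read 24 h post-treatment. Fitted in both directions versus DMSO; parallel SRB staining flags overt cytotoxicity.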

CD40, CD40 (gene 958) [7] = assay: BSK_SAg_CD40: BioMAP Diversity Plus: SAg Assay for CD40 Biomarker Activity (AID 2283088); conditions: actives raise or lower the signal; primary human HUVEC with PBMC
In short: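 Fluorescence ELISA read-out of CD40 from umbilical vein endothelium plus peripheral blood mononuclear cells, sampled 24 h after dosing. Values come from bidirectional curve fitting with DMSO as baseline.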

[8] = read-out: Macrophage colony-stimulating factor (MCSF), CSF1 (gene 1435); assay: BSK_LPS_MCSF: BioMAP Diversity Plus: LPS Assay for Macrophage colony-stimulating factor (MCSF) Biomarker Activity (AID 2283083); conditions: actives raise or lower the signal; primary human HUVEC with PBMC
In short: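 Compound is added to a human vascular primary co-culture of umbilical vein endothelium and blood mononuclear cells. After 24 h, M-CSF is quantified by ELISA. Signal changes are fitted in both directions against DMSO.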

[9] = read-out: Cytochrome P450 3A4 (Homo sapiens) (UniProt P08684); assay: LTEA_HepaRG_CYP3A4: Life Technologies and Expression Analysis (LTEA) Assay for CYP3A4 using HepaRG (AID 2283487); conditions: actives raise or lower the signal; mRNA level, 48 h
In short: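 HepaRG, 48 h exposure, 8-pt CRC from 100 uM (half-log), 0.5% DMSO, duplicates; serum-free induction medium. Readout: CYP3A4 mRNA, qRT-PCR, ACTB/GAPDH/POLR2A normalization. Bidirectional fit vs DMSO.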

[10] = target: Nucleoli Translocation, AR (gene 367) (UniProt P10275); assay: UPITT_HCI_U2OS_AR_TIF2_Nucleoli_Antagonist: University of Pittsburgh U2OS Androgen Receptor-Transcriptional Intermediary Factor 2 (AR-TIF2) Antagonism High Content Imaging Assay for Nucleoli Translocation (AID 2283997; active means hit-call score of the fitted dose curve at least 0.9, where 1 is the maximum)
In short: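 An antagonist-mode imaging screen: engineered U2OS (AR-RFP, TIF2-GFP) exposed to 20 uM compound, 0.2% DMSO. Activity reflects nucleolar red fluorescence change relative to DHT baseline.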

[11] = BSK_LPS_SRB: Viability Assessment in the BioMAP Diversity Plus: LPS Assay (AID 2283079); conditions: primary human HUVEC with PBMC;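 further: total protein by sulforhodamine B absorbance as a cytotoxicity measure; measured one day after compound addition; fitted in both directions against DMSO so loss or gain of signal counts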
In short: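 Overt cytotoxicity was gauged by sulforhodamine B total-protein staining in a primary human vascular endothelial and mononuclear cell co-culture 24 h post-dosing. Activity was fitted in both directions relative to DMSO.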

[12] = read-out: flavin-containing dimethylaniline monooxygenases 3 (FMO3), FMO3 (gene 2328); assay: LTEA_HepaRG_FMO3: Life Technologies and Expression Analysis (LTEA) Assay for flavin-containing dimethylaniline monooxygenases 3 (FMO3) using HepaRG (AID 2283453); conditions: actives raise or lower the signal; mRNA level, 48 h;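 further: differentiated human HepaRG liver cells in serum-free induction medium; FMO3 transcript by TaqMan qRT-PCR normalized to ACTB GAPDH and POLR2A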
In short: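 FMO3 transcript quantified by TaqMan qRT-PCR against three housekeeping genes after 48 h chemical exposure of HepaRG cells. Eight-point half-log series, top 100 uM, 0.5% DMSO vehicle; phenobarbital 1mM induction control; up- or down-regulation fitted.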

[13] = read-out: ABC Transporter (ABCB1), ABCB1 (gene 5243); assay: CLD_ABCB1_24hr: CellzDirect (CLD) Gene Expression Assay for ABC Transporter (ABCB1) at 24 hours (AID 2283684; active means hit-call score of the fitted dose curve at least 0.9, where 1 is the maximum)
In short: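 ABCB1 mRNA induction versus 0.2% DMSO vehicle was read by qNPA chemiluminescence at 24 h. Cultured human hepatocytes from two donor preparations received daily fresh dosing, and phase-contrast cytotoxicity calls were annotated alongside the data.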

Clc1ccccc1Cl
outcome [1]: inactive

Cc1cc(-c2ccc(N)c(C)c2)ccc1N
outcome (CD40, CD40 (gene 958) [2]): inactive
outcome [3]: inactive
AC50 [4]: active: 25.8 µM
AC50 [5]: active: 6.73 µM

CCCOc1nn(C(=O)NS(=O)(=O)c2ccccc2C(=O)OC)c(=O)n1C
outcome [6]: inactive

c1cc2ccc3cccc4ccc(c1)c2c34
AC50 (CD40, CD40 (gene 958) [7]): active: 20.8 µM

CCOP(=O)(OCC)OC(=CCl)c1ccc(Cl)cc1Cl
outcome [1]: inactive

CCCC1COC(Cn2cncn2)(c2ccc(Cl)cc2Cl)O1 (stereo not given)
AC50 [8]: active: 21.5 µM
AC50 [9]: active: 76 µM
AC50 [10]: active: 50 µM

OC(c1ccc(Cl)cc1)(c1ccc(Cl)cc1)C(Cl)(Cl)Cl
AC50 [11]: active: 32.4 µM
AC50 [12]: active: 76.2 µM
outcome [13]: inactive

C=CCOC(=O)C(C)(C)OC(=O)c1cc(-n2c(=O)cc(C(F)(F)F)n(C)c2=O)ccc1Cl
AC50 (CD40, CD40 (gene 958) [7]): active: 7.79 µM
